Data source: PubChem BioAssay AID1259314 (Drosophila RNAi Screening Center, 2017)
Screen: 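Genes whose knock-down alters cell survival under toxic manganese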 (primary screen). System: Drosophila S2R+ cells. Reagents: long dsRNA against Drosophila genes. Duration: 5 days (4 days knock-down, then 1 day metal exposure). Challenge: manganese chloride added to 15 mM for 24 hours. Measurement: 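Cellular ATP measured by luciferase light, scaled to the plate mean, averaged across replicates and z-scored over plates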. Direction: mean ATP z-score: higher = more ATP than the plate average, more viable cells under manganese. Rule for the call: 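Called active when the mean ATP z-score is above 1.5 or below -1.5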. Meaning of the calls: active = strong ATP change, up or down; inactive = no strong ATP change.
The whole screen tested about 3,100 reagents; this is a random part of them. 289 of them (9.3%) were called active. 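Active includes both higher and lower ATP than plate average; check the z-score sign for direction.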 Names joined by + are all predicted targets of the reagent. The record does not give: the amount of reagent.

no.	predicted target	amplicon	mean ATP z-score	call
1	CG32986	DRSC02509	0.567	inactive
2	CG32986	DRSC39699	0.569	inactive
3	sing + Axs	DRSC19333	-0.293	inactive
4	sing + Axs	DRSC39847	-0.602	inactive
5	ChT	DRSC16296	0.72	inactive
6	CG9555	DRSC03264	-0.504	inactive
7	CG9555	DRSC25330	-1.37	inactive
8	ogre	DRSC18809	0.712	inactive
9	ogre	DRSC24730	-0.569	inactive
10	CG3649	DRSC04400	0.0545	inactive
11	CG3649	DRSC28728	-0.327	inactive
12	rho-4	DRSC19761	1.96	active
13	rho-4	DRSC19762	-0.403	inactive
14	Ir64a	DRSC09760	-0.735	inactive
15	Ir64a	DRSC39692	-0.668	inactive
16	CG12914	DRSC06229	0.3	inactive
17	Syx16	DRSC20507	0.482	inactive
18	Syx16	DRSC27163	-0.0332	inactive
19	Cad88C	DRSC15486	0.0385	inactive
20	Cad88C	DRSC26126	-0.756	inactive
21	Nhe3	DRSC03380	-0.464	inactive
22	Nhe3	DRSC39850	-0.782	inactive
23	mthl1	DRSC19905	-0.186	inactive
24	mthl1	DRSC39903	-0.885	inactive
25	CG1275	DRSC08294	0.84	inactive
26	fbl	DRSC11886	-0.475	inactive
27	fbl	DRSC27922	-0.755	inactive
28	CG2930	DRSC17730	1.16	inactive
29	CG2930	DRSC26303	-1.49	inactive
30	CG10226	DRSC09715	-0.0651	inactive
31	Ctr1C	DRSC15089	0.439	inactive
32	Ctr1C	DRSC39456	-0.618	inactive
33	Gr64b + Gr64c	DRSC08444	-0.453	inactive
34	Gr64b + Gr64c	DRSC08445	-1.16	inactive
35	Gr64b + Gr64c	DRSC27568	-0.236	inactive
36	drd	DRSC19343	0.0221	inactive
37	drd	DRSC26473	-0.523	inactive
38	pasi2	DRSC16380	1.3	inactive
39	pasi2	DRSC39713	-1.35	inactive
40	PGRP-SB2	DRSC11092	-0.216	inactive
41	Tsp42Ed	DRSC05940	1.53	active
42	Tsp42Ed	DRSC39728	-0.511	inactive
43	Cftr	DRSC15872	-1.57	active
44	Cftr	DRSC24655	0.0456	inactive
45	CG33233	DRSC08239	-0.359	inactive
46	CG33233	DRSC39585	0.89	inactive
47	Syx1A	DRSC15359	-0.0168	inactive
48	Syx1A	DRSC21554	-0.0728	inactive
49	CG14160	DRSC10161	-0.453	inactive
50	Zip42C.2	DRSC05004	0.89	inactive
51	Zip42C.2	DRSC39021	0.00209	inactive
52	Osi10b	DRSC12279	-0.885	inactive
53	Osi10b	DRSC39619	-1.06	inactive
54	Myd88	DRSC06815	-0.808	inactive
55	Myd88	DRSC39905	0.263	inactive
56	BicC	DRSC02005	-0.564	inactive
57	BicC	DRSC29676	-0.218	inactive
58	Pdfr	DRSC18614	1.09	inactive
59	Pdfr	DRSC39789	-1.11	inactive
60	Tsp42Ep	DRSC06871	1.67	active
61	kug	DRSC10911	0.116	inactive
62	CG13978	DRSC14720	-0.00328	inactive
63	CG9826	DRSC04570	-0.303	inactive
64	ClC-b	DRSC07220	-0.199	inactive
65	Tsp42Ej	DRSC06113	-0.587	inactive
66	Tsp42Ej	DRSC28269	0.445	inactive
67	ppk19	DRSC15321	0.31	inactive
68	ppk19	DRSC39774	-1.71	active
69	Spase25	DRSC19776	-0.596	inactive
70	Spase25	DRSC39745	0.545	inactive
71	CG15406	DRSC00420	-0.927	inactive
72	CG15406	DRSC28108	-0.454	inactive
73	CG9747	DRSC23910	-1.05	inactive
74	CG9747	DRSC39676	0.705	inactive
75	arr	DRSC07451	0.267	inactive
76	arr	DRSC27035	0.126	inactive

Copied from the listing (3 entries):
no.	predicted target	amplicon	mean ATP z-score	call
2	CG32986	DRSC39699	0.569	inactive
3	sing + Axs	DRSC19333	-0.293	inactive
4	sing + Axs	DRSC39847	-0.602	inactive
